Data from the primary screen of doi:10.1371/journal.pone.0140310, rounded.

Compounds and concentrations:
ABT-263: CC1(C)CCC(c2ccc(Cl)cc2)=C(CN2CCN(c3ccc(C(=O)NS(=O)(=O)c4ccc(N[C@H](CCN5CCOCC5)CSc5ccccc5)c(S(=O)(=O)C(F)(F)F)c4)cc3)CC2)C1 at 2000 nM
lapatinib: CS(=O)(=O)CCNCc1ccc(-c2ccc3ncnc(Nc4ccc(OCc5cccc(F)c5)c(Cl)c4)c3c2)o1 at 4000 nM
etoposide: COc1cc([C@@H]2c3cc4c(cc3[C@@H](O[C@@H]3O[C@@H]5CO[C@@H](C)O[C@H]5[C@H](O)[C@H]3O)[C@H]3COC(=O)[C@H]23)OCO4)cc(OC)c1O at 100 nM
PF-04217903: OCCn1cc(-c2cnc3nnn(Cc4ccc5ncccc5c4)c3n2)cn1 at 5000 nM
BMS-536924: Cc1cc(N2CCOCC2)cc2[nH]c(-c3c(NC[C@@H](O)c4cccc(Cl)c4)cc[nH]c3=O)nc12 at 1000 nM
ZM336372: Cc1ccc(NC(=O)c2cccc(N(C)C)c2)cc1NC(=O)c1ccc(O)cc1 at 10000 nM
fingolimod: CCCCCCCCc1ccc(CCC(N)(CO)CO)cc1 at 10000 nM
A-769662: N#Cc1c(O)c2c(-c3ccc(-c4ccccc4O)cc3)csc2[nH]c1=O at 10000 nM
MK-1775: C=CCn1c(=O)c2cnc(Nc3ccc(N4CCN(C)CC4)cc3)nc2n1-c1cccc(C(C)(C)O)n1 at 100 nM

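The test systems are human melanoma cell lines, treated with two drugs together for 72 h and then stained and imaged. Values are the share of nuclei positive for cleaved PARP as a percentage of the same share in the DMSO control: 100 is the control level, higher means more apoptosis. Every drug was used at one fixed concentration, the higher of two screened. These are primary screening values without error estimates. The marker varies much from line to line, for technical or biological reasons.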 An unselected part of the screen is shown. An entry leaves out what has no value listed here. A dash means that no value is listed here.

{"combination": "fingolimod + lapatinib", "WM3526": 3000, "WM1745": 1590, "A2058": 1060, "A375": 175, "LB2518-MEL": 30500}
{"combination": "ABT-263 + PF-04217903", "WM3526": 335, "WM1745": 1040, "A2058": 149, "LB2518-MEL": 243}
{"combination": "A-769662 + fingolimod", "WM3526": 1150, "A2058": 606, "A375": 207, "LB2518-MEL": 49300}
{"combination": "fingolimod + etoposide", "WM3526": 659, "WM1745": 631, "A2058": 1610, "A375": 65.3, "LB2518-MEL": 6750}
{"combination": "ABT-263 + etoposide", "WM3526": 136, "WM1745": 4250, "A2058": 175, "A375": 83.9, "LB2518-MEL": 326}
{"combination": "ABT-263 + MK-1775", "WM3526": 480, "WM1745": 4270, "A2058": 160, "LB2518-MEL": 112}
{"combination": "ZM336372 + ABT-263", "WM3526": 238, "WM1745": 5310, "A2058": 172, "LB2518-MEL": 145}
{"combination": "BMS-536924 + ZM336372", "WM3526": 95.4, "WM1745": 151, "A2058": 80.6, "LB2518-MEL": 99.9}
{"combination": "PF-04217903 + ZM336372", "WM3526": 104, "WM1745": 69.1, "A2058": 108, "LB2518-MEL": 87.1}
{"combination": "MK-1775 + lapatinib", "WM3526": 268, "WM1745": 129, "A2058": 105, "LB2518-MEL": 198}
{"combination": "PF-04217903 + lapatinib", "WM3526": 118, "WM1745": 87.9, "A2058": 59.2, "LB2518-MEL": 93.7}
{"combination": "MK-1775 + PF-04217903", "WM3526": 167, "WM1745": 168, "A2058": 90.5}
{"combination": "BMS-536924 + MK-1775", "WM3526": 514, "WM1745": 737, "A2058": 302, "LB2518-MEL": 220}
{"combination": "A-769662 + etoposide", "WM3526": 73.0, "A2058": 167, "A375": 113, "LB2518-MEL": 72.5}
{"combination": "A-769662 + PF-04217903", "WM3526": 86.3, "WM1745": 110, "A2058": 77.1, "A375": 52.3, "LB2518-MEL": 60.9}
{"combination": "fingolimod + BMS-536924", "WM3526": 6700, "WM1745": 4320, "A2058": 5980, "LB2518-MEL": 27800}
{"combination": "BMS-536924 + A-769662", "WM3526": 72.0, "WM1745": 127, "A2058": 103, "A375": 34.0, "LB2518-MEL": 60.8}
{"combination": "A-769662 + ZM336372", "WM3526": 94.6, "WM1745": 398, "A2058": 153, "A375": 70.1, "LB2518-MEL": 57.9}
{"combination": "ZM336372 + lapatinib", "WM3526": 216, "WM1745": 141, "A2058": 179, "LB2518-MEL": 64.7}
{"combination": "lapatinib + A-769662", "WM3526": 172, "A2058": 92.3, "A375": 173, "LB2518-MEL": 86.5}
{"combination": "ABT-263 + BMS-536924", "WM3526": 315, "WM1745": 796, "A2058": 277, "LB2518-MEL": 149}
{"combination": "etoposide + MK-1775", "WM3526": 464, "WM1745": 161, "A2058": 245, "LB2518-MEL": 298}
{"combination": "ABT-263 + A-769662", "WM3526": 412, "A2058": 136, "A375": 809, "LB2518-MEL": 71.1}
{"combination": "MK-1775 + ZM336372", "WM3526": 228, "WM1745": 202, "A2058": 109, "LB2518-MEL": 215}
{"combination": "etoposide + lapatinib", "WM3526": 146, "WM1745": 133, "A2058": 233, "A375": 143, "LB2518-MEL": 343}
{"combination": "PF-04217903 + etoposide", "WM3526": 130, "WM1745": 88.3, "A2058": 140, "LB2518-MEL": 75.7}
{"combination": "A-769662 + MK-1775", "WM3526": 120, "WM1745": 248, "A2058": 107, "A375": 102, "LB2518-MEL": 49.7}
{"combination": "BMS-536924 + PF-04217903", "WM3526": 176, "WM1745": 434, "A2058": 143, "LB2518-MEL": 300}
{"combination": "fingolimod + ZM336372", "WM3526": 6650, "WM1745": 188, "A2058": 865}
{"combination": "BMS-536924 + etoposide", "WM3526": 84.2, "WM1745": 140, "A2058": 186, "LB2518-MEL": 97.8}
{"combination": "PF-04217903 + fingolimod", "WM3526": 258, "WM1745": 701, "A2058": 3290, "LB2518-MEL": 1460}
{"combination": "lapatinib + BMS-536924", "WM3526": 189, "WM1745": 150, "A2058": 170, "LB2518-MEL": 57.7}

Once more, the final 3:

| Combination | WM3526 | WM1745 | A2058 | A375 | LB2518-MEL |
|---|---|---|---|---|---|
| BMS-536924 + etoposide | 84.2 | 140 | 186 | - | 97.8 |
| PF-04217903 + fingolimod | 258 | 701 | 3290 | - | 1460 |
| lapatinib + BMS-536924 | 189 | 150 | 170 | - | 57.7 |